{"source": "patent US20230210845A1", "about": "“DOSING METHODS FOR TREATMENT OF CARDIOVASCULAR CONDITIONS” (IMBRIA PHARMACEUTICALS, INC., priority 2020, published 2023)", "note": "Read-outs that look alike come from different tables or passages of the source. For at least one compound, name, drawing or mass did not settle the structure."}
{"molecule": "COc1ccc(CN2CCN(CCO)CC2)c(OC)c1OC", "note": "[IMB-1028814]", "values": [{"measurement": "detectable individual concentrations observed until", "setting": "postdose after 50 mg IMB-1018972, fasted", "result": "10, 12, 16, or 24 hours"}, {"measurement": "detectable individual concentrations observed until", "setting": "postdose after 150 mg IMB-1018972, fasted", "result": "16 or 24 hours"}, {"measurement": "detectable individual concentrations observed until", "setting": "postdose after 400 mg IMB-1018972, fasted", "result": "16 or 24 hours"}]}
